These are yes or no findings as the source states them, for the method shown. Some results given as binding are weak or reduced against the parent protein; the word gives no strength. Tags and fused reporters may be left off the sequences shown.
How the values were obtained:
[1] = biological target: T1, GDF8 (UniProt O14793); test: SPR (Biacore), legend of FIG. 6; the five ligands are named in paragraph 510
T1 sequence (looked up): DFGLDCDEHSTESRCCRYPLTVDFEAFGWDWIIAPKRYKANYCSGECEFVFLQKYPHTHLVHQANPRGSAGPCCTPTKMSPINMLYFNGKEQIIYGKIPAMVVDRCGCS

Amino acid sequences for entries named in this document (tags omitted). Residues count along the entry.
UniProt P22004, residues 382-513: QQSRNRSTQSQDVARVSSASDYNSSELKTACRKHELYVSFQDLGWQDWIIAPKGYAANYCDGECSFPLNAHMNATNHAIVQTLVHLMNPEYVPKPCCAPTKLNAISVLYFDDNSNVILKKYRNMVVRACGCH

[2] = biological target: T2, activin B (UniProt P09529); test: as above
T2 sequence (looked up): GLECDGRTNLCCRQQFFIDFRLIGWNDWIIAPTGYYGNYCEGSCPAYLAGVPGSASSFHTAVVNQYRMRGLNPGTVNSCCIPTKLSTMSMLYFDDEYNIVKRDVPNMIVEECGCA

[3] = biological target: T3, GDF11 (UniProt O95390); test: as above
T3 sequence (looked up): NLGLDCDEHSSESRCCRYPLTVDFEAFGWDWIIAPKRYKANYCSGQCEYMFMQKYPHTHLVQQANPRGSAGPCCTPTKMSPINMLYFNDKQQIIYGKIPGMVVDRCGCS

[4] = biological target: T4, BMP10 (UniProt O95393); test: as above
T4 sequence (looked up): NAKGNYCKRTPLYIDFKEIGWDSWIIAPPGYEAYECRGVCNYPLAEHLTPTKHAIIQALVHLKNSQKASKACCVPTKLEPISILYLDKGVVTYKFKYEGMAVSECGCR

[5] = biological target: T1, GDF8; test: SPR (Biacore), receptor-Fc captured by anti-Fc antibody, ligand injected
[6] = biological target: T2, activin B; test: as above
[7] = biological target: T3, GDF11; test: as above
[8] = biological target: T4, BMP10; test: as above
[9] = biological target: BMP6 (UniProt P22004); test: Biacore; receptor-Fc captured with anti-Fc antibody, ligand injected; ligands ranked by off-rate
[10] = biological target: T5, BMP9 (UniProt Q9UK05); test: as above
T5 sequence (looked up): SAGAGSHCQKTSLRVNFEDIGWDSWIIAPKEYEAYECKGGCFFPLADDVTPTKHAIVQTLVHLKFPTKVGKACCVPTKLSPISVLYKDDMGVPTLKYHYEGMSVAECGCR

[11] = biological target: BMP6 (UniProt P22004); test: SPR (Biacore), receptor-Fc captured by anti-Fc antibody, ligand injected
[12] = biological target: T6, GDF6 (UniProt Q6KF10); test: as above
T6 sequence (looked up): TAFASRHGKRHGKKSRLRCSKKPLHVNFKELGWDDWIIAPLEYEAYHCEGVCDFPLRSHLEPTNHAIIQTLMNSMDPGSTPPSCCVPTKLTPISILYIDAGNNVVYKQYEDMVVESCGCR

Measured: binding

B1: ActRIIB-Fc homodimeric complex (Fc fusion, UniProt Q13705 20-134, looked up, not shown: a dimerising Fc or GST)
chain: GRGEAETRECIYYNANWELERTNQSGLERCEGEQDKRLHCYASWRNSSGTIELVKKGCWLDDFNCYDRQECVATEENPQVYFCCCEGNFCNERFTHLPEAGGPEVTYEPPPTAPT
binds: [1] | [2] | [3] | [4] | [5] | [6] | [7] | [8] | [9] | [10]

B2: BMPRII-Fc homodimeric complex (Fc fusion, UniProt Q13873 27-150, looked up, not shown: a dimerising Fc or GST)
chain: SQNQERLCAFKDPYQQDLGIGESRISHENGTILCSKGSTCYGLWEKSKGDINLVKQGCWSHIGDPQECHYEECVVTTTPPSIQNGTYRFCCCSTDLCNVNFTENFPPPDTTPLSPPHSFNRDET
binds: [11] | [12]

From patent publication US20160289298A1
